# Reference: PMC7862700
# This is a selection; strong and weak results do not stand in their true shares. At the low end of the ranking, values are background and their order means little.
# Tests used:
# Assay in all cases: DAPPL (digital affinity profiling via proximity ligation, sequencing)
# Conditions in all cases: 10 mM Tris-HCl pH 7.5, 50 mM NaCl, 1 mM DTT, 4% glycerol, room temperature, 30 min; GST-TFs on glutathione beads, 16-mer random dsDNA library, 0.1% …; high values mean tight binding; double strand, one strand shown; scale: fold enrichment (6-mer frequency, TF over GST control)
# [1] = biological target: T1, ELK1 (UniProt P19419)
# T1 sequence: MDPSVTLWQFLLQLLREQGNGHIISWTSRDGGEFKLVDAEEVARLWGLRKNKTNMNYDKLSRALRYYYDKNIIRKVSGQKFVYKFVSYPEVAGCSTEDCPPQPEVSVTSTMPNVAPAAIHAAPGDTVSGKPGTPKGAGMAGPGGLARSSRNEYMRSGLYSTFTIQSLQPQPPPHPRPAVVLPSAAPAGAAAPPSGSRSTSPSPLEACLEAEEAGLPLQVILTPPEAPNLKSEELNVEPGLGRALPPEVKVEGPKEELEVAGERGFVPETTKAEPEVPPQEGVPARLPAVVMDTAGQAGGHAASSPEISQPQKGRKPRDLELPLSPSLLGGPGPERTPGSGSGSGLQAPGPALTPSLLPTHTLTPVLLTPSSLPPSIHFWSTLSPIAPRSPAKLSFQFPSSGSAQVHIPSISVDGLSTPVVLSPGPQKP
# [2] = biological target: T2, ELK3 (UniProt P41970)
# T2 sequence: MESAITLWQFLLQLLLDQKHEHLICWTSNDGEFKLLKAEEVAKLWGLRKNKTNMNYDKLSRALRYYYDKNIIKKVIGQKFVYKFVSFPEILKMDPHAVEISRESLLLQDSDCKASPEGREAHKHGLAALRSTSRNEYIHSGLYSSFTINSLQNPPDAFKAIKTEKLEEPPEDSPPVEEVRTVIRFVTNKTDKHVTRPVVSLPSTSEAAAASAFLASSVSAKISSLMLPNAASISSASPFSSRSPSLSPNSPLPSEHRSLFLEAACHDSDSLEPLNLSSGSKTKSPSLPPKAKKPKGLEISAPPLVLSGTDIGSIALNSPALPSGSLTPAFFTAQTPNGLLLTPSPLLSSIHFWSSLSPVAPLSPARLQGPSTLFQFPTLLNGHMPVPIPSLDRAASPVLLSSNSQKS
# [3] = biological target: T3, SPIC (UniProt Q8N5J4)
# T3 sequence: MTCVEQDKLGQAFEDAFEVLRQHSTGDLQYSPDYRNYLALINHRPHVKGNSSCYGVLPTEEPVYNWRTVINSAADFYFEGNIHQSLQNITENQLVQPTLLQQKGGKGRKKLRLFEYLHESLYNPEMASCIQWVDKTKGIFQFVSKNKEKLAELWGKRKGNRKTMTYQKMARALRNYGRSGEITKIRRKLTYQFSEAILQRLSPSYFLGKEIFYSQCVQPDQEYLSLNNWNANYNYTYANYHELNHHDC
# [4] = biological target: T4, ETS2 (UniProt P15036)
# T4 sequence: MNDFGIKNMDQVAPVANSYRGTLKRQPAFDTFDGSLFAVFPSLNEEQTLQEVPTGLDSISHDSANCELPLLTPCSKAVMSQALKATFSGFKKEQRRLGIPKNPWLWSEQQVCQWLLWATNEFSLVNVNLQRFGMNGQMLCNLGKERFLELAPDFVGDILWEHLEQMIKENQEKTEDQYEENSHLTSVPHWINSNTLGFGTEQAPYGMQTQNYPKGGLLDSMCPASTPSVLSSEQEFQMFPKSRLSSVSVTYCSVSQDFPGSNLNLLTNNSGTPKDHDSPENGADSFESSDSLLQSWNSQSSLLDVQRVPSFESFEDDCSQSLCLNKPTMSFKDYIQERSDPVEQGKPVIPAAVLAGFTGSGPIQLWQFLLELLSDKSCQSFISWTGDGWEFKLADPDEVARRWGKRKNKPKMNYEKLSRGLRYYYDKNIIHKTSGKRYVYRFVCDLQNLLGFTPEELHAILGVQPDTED
# [5] = biological target: T5, ETV3 (UniProt P41162-2)
# T5 sequence: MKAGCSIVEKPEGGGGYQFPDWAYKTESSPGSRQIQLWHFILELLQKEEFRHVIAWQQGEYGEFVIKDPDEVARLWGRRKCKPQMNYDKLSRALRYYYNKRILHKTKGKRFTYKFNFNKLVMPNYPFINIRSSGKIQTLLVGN
Sequence,binding signal [1],binding signal [2],binding signal [3],binding signal [4],binding signal [5]
GTGGGG,0.568,0.648,0.582,0.612,0.644
GAGCCT,0.858,0.804,0.705,0.819,0.861
CAGAGC,0.829,0.714,0.898,0.802,0.882
CGGTGT,0.779,0.742,0.744,0.742,0.729
GGCGCT,0.708,0.742,0.892,0.757,0.772
ATCGGA,0.399,0.44,0.452,0.432,0.438
GCAGTT,0.879,0.838,0.836,0.813,0.853
CCGTGG,0.42,0.399,0.394,0.421,0.445
CGAGAC,0.544,0.616,0.605,0.573,0.546
GGCGCC,0.666,0.801,0.763,0.689,0.65
AAGGGG,0.908,1.05,0.945,0.93,0.92
CGGTCA,0.789,0.817,0.741,0.848,0.761
AGGCCA,0.622,0.683,0.712,0.653,0.605
CGCATC,0.92,0.979,0.874,0.893,0.892
TCGGTG,0.497,0.51,0.442,0.567,0.503
GCCCGT,0.586,0.634,0.528,0.57,0.65
GGGACA,0.719,0.658,0.732,0.654,0.675
GAGAAC,0.415,0.44,0.426,0.39,0.397
GTCTGA,0.75,0.735,0.839,0.777,0.751
GCGCGG,0.814,0.818,0.705,0.822,0.798
TGGAGG,0.463,0.477,0.484,0.476,0.47
ACGAGT,0.743,0.859,0.716,0.732,0.696
GGGTCT,0.921,0.859,0.969,0.967,0.911
GTGATA,0.724,0.727,0.645,0.755,0.691
GTTAGT,0.831,0.8,0.722,0.808,0.896

# An excerpt of the results above, as a working copy:
Sequence,binding signal [1],binding signal [2],binding signal [3],binding signal [4],binding signal [5]
GGGTCT,0.921,0.859,0.969,0.967,0.911
GTGATA,0.724,0.727,0.645,0.755,0.691

# The listing continues:

Sequence,binding signal [1],binding signal [2],binding signal [3],binding signal [4],binding signal [5]
CGAGGC,0.65,0.573,0.622,0.712,0.668
GAGGAA,0.764,0.766,0.918,0.843,0.818
ACGAGA,0.704,0.722,0.615,0.703,0.65
AAGGCG,0.718,0.729,0.708,0.641,0.705
GGCAGG,0.636,0.609,0.585,0.651,0.58
GGGCAG,0.614,0.588,0.514,0.582,0.623
GTGCCA,0.799,0.833,0.92,0.766,0.802
TGAGGT,0.638,0.585,0.642,0.635,0.675
GAGTCA,0.269,0.31,0.279,0.263,0.289
GAACGA,0.776,0.838,0.852,0.792,0.784
TGACGT,0.977,0.959,0.831,0.852,0.78
GAACGT,0.38,0.451,0.512,0.425,0.41
AGTGCG,0.886,0.894,0.918,0.834,0.874
GACAGA,0.633,0.585,0.61,0.639,0.607
CGGGAC,0.598,0.569,0.49,0.53,0.547
GGGTTG,0.843,0.764,0.928,0.843,0.771
GAGGTC,0.595,0.554,0.603,0.613,0.635
ATAGAG,0.925,0.921,0.937,0.859,0.935
TCCGTG,0.515,0.507,0.531,0.527,0.513
ACAGGC,0.701,0.666,0.721,0.645,0.661
CGTGTG,0.404,0.352,0.395,0.476,0.411
GTCGGT,0.281,0.306,0.264,0.3,0.276
AGCAGT,0.719,0.803,0.69,0.717,0.711
AGGAGT,0.354,0.422,0.352,0.374,0.363
ACAGGG,0.814,0.755,0.642,0.788,0.823
